Measured data: PubChem BioAssay AID1224828 (NIAID, 2016)
The whole screen tested about 17,000 reagents; below is a part drawn at random. 762 of all reagents (4.5%) were called active. 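Active calls include both raised and lowered p65 entry, mostly lowered; wells with fewer than 50 cells lack a z-score.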 The raw values are shown without normalisation. Reagents against one gene are numbered here.

Assay: 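Regulators linking TLR4 signalling to p65 nuclear translocation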 (primary screen)
Cell system: mouse RAW264.7 G9 macrophage reporter cells (GFP-p65, Tnf promoter-mCherry)
Reagents: siRNA pool against mouse genes, 100 nM
Duration: 2 days siRNA transfection, then 40 min LPS before fixation
Treatment: LPS (Salmonella minnesota R595) at 10 ng/ml
Detection: 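Microscopy ratio of nuclear to perinuclear-ring GFP-p65 signal, scaled to the plate median; gene score is the average of two replicate robust z-scores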
Reading the numbers: p65 translocation robust z-score: higher = more nuclear NF-kappaB p65 after LPS than the plate median; nuclear/cytoplasmic p65 ratio: higher = more nuclear NF-kappaB p65
Hit rule: 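Called active when z exceeds 3.3 or falls under -1.56 (median of Tlr4 controls), giving activity score of at least 50; no calls for control wells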
Calls: active = hit (p65 shift raised or lowered); inactive = no clear change

| Gene | reagent | p65 translocation robust z-score | nuclear/cytoplasmic p65 ratio, rep 1 | nuclear/cytoplasmic p65 ratio, rep 2 | low cell count flag | Outcome |
| --- | --- | --- | --- | --- | --- | --- |
| Kcnrg | 1 | 1.4 | 1.65 | 1.55 | enough cells to score | inactive |
| AF085738 (retired record) | 1 | -1.78 | 1.38 | 1.37 | enough cells to score | active |
| Fzd2 | 1 | -0.29 | 1.48 | 1.53 | enough cells to score | inactive |
| Hspa8 | 1 | – | 2.54 | 1.18 | fewer than 50 cells per well; well left out of scoring | inactive |
| Nfe2l2 | 1 | -1.76 | 1.19 | 1.14 | enough cells to score | active |
| Ginm1 | 1 | 0.56 | 1.66 | 1.94 | enough cells to score | inactive |
| Sdc4 | 1 | -0.09 | 1.47 | 1.61 | enough cells to score | inactive |
| Prss12 | 1 | – | 1.64 | 1.29 | fewer than 50 cells per well; well left out of scoring | inactive |
| Cyp2a4 | 1 | -0.96 | 1.4 | 1.2 | enough cells to score | inactive |
| Or8b40 | 1 | 0.52 | 1.62 | 1.24 | enough cells to score | inactive |
| Vwa2 | 1 | -0.61 | 1.47 | 1.64 | enough cells to score | inactive |
| Zfp352 | 1 | 0.79 | 1.61 | 1.26 | enough cells to score | inactive |
| Scara5 | 1 | 0.81 | 1.47 | 1.39 | enough cells to score | inactive |
| Gak | 1 | -0.13 | 1.7 | 1.35 | enough cells to score | inactive |
| Tmem139 | 1 | -0.82 | 1.22 | 1.47 | enough cells to score | inactive |
| Or5h24-ps1 | 1 | 0.54 | 1.69 | 1.25 | enough cells to score | inactive |
| Bdkrb1 | 1 | – | 1.4 | 1.57 | fewer than 50 cells per well; well left out of scoring | inactive |
| Or1o2 | 1 | 0.95 | 1.53 | 1.38 | enough cells to score | inactive |
| Ppig | 1 | 0.92 | 1.83 | 1.68 | enough cells to score | inactive |
| C1qtnf6 | 1 | 0.66 | 1.46 | 1.68 | enough cells to score | inactive |
| Dgcr2 | 1 | 0.35 | 1.6 | 1.36 | enough cells to score | inactive |
| Or52r1b | 1 | -0.32 | 1.4 | 1.19 | enough cells to score | inactive |
| Ybey | 1 | 1.56 | 1.67 | 1.65 | enough cells to score | inactive |
| Cfb | 1 | -0.51 | 1.1 | 1.33 | enough cells to score | inactive |
| Ing5 | 1 | 0.56 | 1.59 | 1.55 | enough cells to score | inactive |
| Or8g27 | 1 | -0.02 | 1.44 | 1.23 | enough cells to score | inactive |
| Tmem130 | 1 | -1.73 | 1.15 | 1.33 | enough cells to score | active |
| Faxc | 1 | 1.49 | 1.48 | 1.74 | enough cells to score | inactive |
| Ptgis | 1 | -0.93 | 1.41 | 1.25 | enough cells to score | inactive |

The list goes on; the last 10 above are carried over.
| Gene | reagent | p65 translocation robust z-score | nuclear/cytoplasmic p65 ratio, rep 1 | nuclear/cytoplasmic p65 ratio, rep 2 | low cell count flag | Outcome |
| --- | --- | --- | --- | --- | --- | --- |
| C1qtnf6 | 1 | 0.66 | 1.46 | 1.68 | enough cells to score | inactive |
| Dgcr2 | 1 | 0.35 | 1.6 | 1.36 | enough cells to score | inactive |
| Or52r1b | 1 | -0.32 | 1.4 | 1.19 | enough cells to score | inactive |
| Ybey | 1 | 1.56 | 1.67 | 1.65 | enough cells to score | inactive |
| Cfb | 1 | -0.51 | 1.1 | 1.33 | enough cells to score | inactive |
| Ing5 | 1 | 0.56 | 1.59 | 1.55 | enough cells to score | inactive |
| Or8g27 | 1 | -0.02 | 1.44 | 1.23 | enough cells to score | inactive |
| Tmem130 | 1 | -1.73 | 1.15 | 1.33 | enough cells to score | active |
| Faxc | 1 | 1.49 | 1.48 | 1.74 | enough cells to score | inactive |
| Ptgis | 1 | -0.93 | 1.41 | 1.25 | enough cells to score | inactive |
| AI606181 | 1 | 2.24 | 1.93 | 2.05 | enough cells to score | inactive |
| Or8b101 | 1 | 1.06 | 1.6 | 1.38 | enough cells to score | inactive |
| Orc5 | 1 | -2.29 | 1.1 | 1.01 | enough cells to score | active |
| Mapre3 | 1 | -1.44 | 1.23 | 1.18 | enough cells to score | inactive |
| Pkdcc | 1 | -0.08 | 1.66 | 1.38 | enough cells to score | inactive |
| Esyt2 | 1 | -1.21 | 1.36 | 1.62 | enough cells to score | inactive |
| Clic1 | 1 | -0.91 | 1.49 | 1.6 | enough cells to score | inactive |
| Cd6 | 1 | -0.13 | 1.48 | 1.36 | enough cells to score | inactive |
| Pyroxd1 | 1 | -1.99 | 1.38 | 1.4 | enough cells to score | active |
| Ei24 | 1 | -0.19 | 1.45 | 1.34 | enough cells to score | inactive |
| Igsf3 | 1 | -1.25 | 1.36 | 1.18 | enough cells to score | inactive |
| Kif18a | 1 | 1.32 | 1.68 | 1.53 | enough cells to score | inactive |
| G6pd2 | 1 | -2.28 | 1.28 | 1.13 | enough cells to score | active |
| Specc1l | 1 | – | 1.28 | 1.97 | fewer than 50 cells per well; well left out of scoring | inactive |
| Ppt1 | 1 | -0.14 | 1.47 | 1.4 | enough cells to score | inactive |
| Ppt1 | 2 | – | 0 | 1.41 | fewer than 50 cells per well; well left out of scoring | inactive |
| Gzma | 1 | -0.53 | 1.29 | 1.38 | enough cells to score | inactive |
| Eftud2 | 1 | – | 1.3 | 1.12 | fewer than 50 cells per well; well left out of scoring | inactive |
| Cnih3 | 1 | – | 1.16 | 1.17 | fewer than 50 cells per well; well left out of scoring | inactive |
| H13 | 1 | -0.03 | 1.61 | 1.57 | enough cells to score | inactive |
| Ucn | 1 | -0.5 | 1.57 | 1.32 | enough cells to score | inactive |
| Fbxo22 | 1 | 0.19 | 1.53 | 1.36 | enough cells to score | inactive |
| Or8b53 | 1 | 0.22 | 1.52 | 1.23 | enough cells to score | inactive |
| Pkhd1 | 1 | 0.92 | 1.53 | 1.61 | enough cells to score | inactive |
| Ppa1 | 1 | -1.3 | 1.41 | 1.26 | enough cells to score | inactive |
| Kdm5c | 1 | -0.02 | 1.54 | 1.43 | enough cells to score | inactive |
| 4930590J08Rik | 1 | – | 1.45 | 1.34 | fewer than 50 cells per well; well left out of scoring | inactive |
| Gcdh | 1 | -1.1 | 1.26 | 1.26 | enough cells to score | inactive |
| Stag1 | 1 | 1.92 | 1.68 | 1.11 | enough cells to score | inactive |
| Aup1 | 1 | 1.24 | 1.75 | 1.72 | enough cells to score | inactive |
| Tymp | 1 | -1.36 | 1.3 | 1.17 | enough cells to score | inactive |
| Paral1 | 1 | -0.83 | 1.39 | 1.78 | enough cells to score | inactive |
| Polr3k | 1 | – | 1.33 | 1.15 | fewer than 50 cells per well; well left out of scoring | inactive |
| Bmper | 1 | -0.11 | 1.38 | 1.55 | enough cells to score | inactive |
| Poglut2 | 1 | 1.34 | 1.71 | 1.64 | enough cells to score | inactive |
| Ppp1r1c | 1 | – | 1.39 | 1.34 | fewer than 50 cells per well; well left out of scoring | inactive |
| Zbtb17 | 1 | -0.4 | 1.47 | 1.43 | enough cells to score | inactive |
| Wdr25 | 1 | -1.29 | 1.28 | 1.74 | enough cells to score | inactive |
| Cip2a | 1 | 1.1 | 1.66 | 1.6 | enough cells to score | inactive |
| Nrip1 | 1 | -1.47 | 1.23 | 1.21 | enough cells to score | inactive |
| Or4e1 | 1 | -0.71 | 1.5 | 1.38 | enough cells to score | inactive |
| Acadm | 1 | 0.2 | 1.7 | 1.6 | enough cells to score | inactive |
| Gltp | 1 | 0.37 | 1.69 | 1.61 | enough cells to score | inactive |
| BC106179 | 1 | -0.03 | 1.61 | 1.8 | enough cells to score | inactive |
| Racgap1 | 1 | – | 1.05 | 1.02 | fewer than 50 cells per well; well left out of scoring | inactive |
| Zkscan14 | 1 | -1.76 | 1.17 | 1.06 | enough cells to score | active |
